Reference: the supplement of paper PMC10849652
The other results are listed elsewhere or left out.

Chains of the proteins cited; added tags and fusions are not shown. Lines headed by an entry give the natural chain unless they say otherwise; changes in a name come on top.
UniProt Q14249: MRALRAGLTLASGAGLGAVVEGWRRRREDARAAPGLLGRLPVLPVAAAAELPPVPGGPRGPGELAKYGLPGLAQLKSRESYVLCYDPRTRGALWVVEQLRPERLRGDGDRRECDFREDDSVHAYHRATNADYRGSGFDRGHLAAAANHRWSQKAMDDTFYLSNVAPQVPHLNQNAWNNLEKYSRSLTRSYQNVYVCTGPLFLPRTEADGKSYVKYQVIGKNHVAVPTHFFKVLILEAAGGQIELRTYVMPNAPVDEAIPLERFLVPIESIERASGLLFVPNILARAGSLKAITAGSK
UniProt Q13541: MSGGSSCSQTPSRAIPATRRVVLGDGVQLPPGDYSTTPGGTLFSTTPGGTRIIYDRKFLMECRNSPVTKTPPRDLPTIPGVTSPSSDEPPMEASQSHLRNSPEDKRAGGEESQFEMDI
UniProt O75822, whole entry, looked up: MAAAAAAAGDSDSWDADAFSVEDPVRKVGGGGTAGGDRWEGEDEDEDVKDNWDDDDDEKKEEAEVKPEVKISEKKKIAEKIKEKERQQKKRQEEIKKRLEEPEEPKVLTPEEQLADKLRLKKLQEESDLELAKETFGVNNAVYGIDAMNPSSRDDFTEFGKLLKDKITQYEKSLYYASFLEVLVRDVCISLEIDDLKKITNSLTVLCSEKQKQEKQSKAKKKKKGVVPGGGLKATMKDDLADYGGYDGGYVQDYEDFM
UniProt Q09472, whole entry, looked up: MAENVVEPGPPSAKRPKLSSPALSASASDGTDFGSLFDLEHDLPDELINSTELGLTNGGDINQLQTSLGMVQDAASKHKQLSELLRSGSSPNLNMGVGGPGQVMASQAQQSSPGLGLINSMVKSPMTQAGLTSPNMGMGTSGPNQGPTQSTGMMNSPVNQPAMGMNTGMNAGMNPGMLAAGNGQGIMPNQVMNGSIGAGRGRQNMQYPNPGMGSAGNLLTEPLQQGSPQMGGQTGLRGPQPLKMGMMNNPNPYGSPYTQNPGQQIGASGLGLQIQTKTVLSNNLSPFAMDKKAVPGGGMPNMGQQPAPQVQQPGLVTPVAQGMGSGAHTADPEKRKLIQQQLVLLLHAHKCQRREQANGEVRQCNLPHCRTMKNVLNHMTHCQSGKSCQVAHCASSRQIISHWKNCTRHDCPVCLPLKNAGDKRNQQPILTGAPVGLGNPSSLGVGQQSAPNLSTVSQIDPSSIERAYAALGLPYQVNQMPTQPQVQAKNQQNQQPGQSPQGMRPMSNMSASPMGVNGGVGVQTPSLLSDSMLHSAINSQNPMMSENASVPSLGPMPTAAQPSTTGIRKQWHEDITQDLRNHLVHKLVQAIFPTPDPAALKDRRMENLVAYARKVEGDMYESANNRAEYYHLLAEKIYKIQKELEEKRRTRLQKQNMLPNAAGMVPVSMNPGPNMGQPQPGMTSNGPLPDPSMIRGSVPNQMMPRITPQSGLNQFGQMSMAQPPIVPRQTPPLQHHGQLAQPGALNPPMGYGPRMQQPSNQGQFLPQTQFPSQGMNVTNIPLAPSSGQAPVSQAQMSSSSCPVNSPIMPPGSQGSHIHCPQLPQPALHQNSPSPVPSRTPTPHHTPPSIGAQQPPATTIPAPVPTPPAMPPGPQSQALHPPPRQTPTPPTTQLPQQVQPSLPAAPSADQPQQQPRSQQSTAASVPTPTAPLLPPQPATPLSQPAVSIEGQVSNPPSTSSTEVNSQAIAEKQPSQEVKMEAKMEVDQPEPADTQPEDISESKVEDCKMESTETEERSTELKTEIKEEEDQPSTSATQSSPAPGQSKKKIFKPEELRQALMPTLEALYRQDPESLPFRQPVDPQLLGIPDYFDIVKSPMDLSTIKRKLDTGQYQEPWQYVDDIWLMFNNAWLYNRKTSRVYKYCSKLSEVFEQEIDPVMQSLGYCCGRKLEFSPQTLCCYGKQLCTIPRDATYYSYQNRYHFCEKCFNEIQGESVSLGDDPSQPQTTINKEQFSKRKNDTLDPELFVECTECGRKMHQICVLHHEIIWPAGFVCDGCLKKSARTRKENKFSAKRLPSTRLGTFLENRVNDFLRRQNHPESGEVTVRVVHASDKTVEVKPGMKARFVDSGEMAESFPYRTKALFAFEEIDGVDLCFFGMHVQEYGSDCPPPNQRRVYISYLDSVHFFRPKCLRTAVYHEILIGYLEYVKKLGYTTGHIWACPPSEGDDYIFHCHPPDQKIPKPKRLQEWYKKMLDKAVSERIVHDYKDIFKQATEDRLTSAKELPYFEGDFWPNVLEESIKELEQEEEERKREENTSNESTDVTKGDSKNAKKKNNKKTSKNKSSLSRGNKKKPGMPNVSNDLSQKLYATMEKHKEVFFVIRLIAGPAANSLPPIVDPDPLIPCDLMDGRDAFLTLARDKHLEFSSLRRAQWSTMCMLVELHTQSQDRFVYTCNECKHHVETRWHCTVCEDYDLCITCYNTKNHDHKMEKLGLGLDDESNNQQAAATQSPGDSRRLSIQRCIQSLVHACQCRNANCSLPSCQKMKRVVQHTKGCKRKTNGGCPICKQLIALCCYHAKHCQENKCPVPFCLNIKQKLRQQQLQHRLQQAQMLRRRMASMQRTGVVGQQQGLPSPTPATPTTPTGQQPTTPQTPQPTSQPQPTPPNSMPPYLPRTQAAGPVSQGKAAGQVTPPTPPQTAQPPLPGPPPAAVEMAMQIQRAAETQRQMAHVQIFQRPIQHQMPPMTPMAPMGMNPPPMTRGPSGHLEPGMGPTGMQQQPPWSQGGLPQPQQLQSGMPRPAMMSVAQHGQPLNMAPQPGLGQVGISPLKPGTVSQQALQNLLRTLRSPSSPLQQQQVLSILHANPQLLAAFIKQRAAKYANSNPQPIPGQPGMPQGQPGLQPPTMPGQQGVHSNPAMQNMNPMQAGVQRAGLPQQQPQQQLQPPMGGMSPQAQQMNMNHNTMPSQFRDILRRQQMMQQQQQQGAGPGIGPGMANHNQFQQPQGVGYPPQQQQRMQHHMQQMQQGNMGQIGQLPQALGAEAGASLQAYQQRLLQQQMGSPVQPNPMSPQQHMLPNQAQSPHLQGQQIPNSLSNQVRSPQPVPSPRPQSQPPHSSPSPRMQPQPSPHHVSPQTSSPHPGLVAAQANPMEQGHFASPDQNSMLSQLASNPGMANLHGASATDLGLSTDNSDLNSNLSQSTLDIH
UniProt P49770: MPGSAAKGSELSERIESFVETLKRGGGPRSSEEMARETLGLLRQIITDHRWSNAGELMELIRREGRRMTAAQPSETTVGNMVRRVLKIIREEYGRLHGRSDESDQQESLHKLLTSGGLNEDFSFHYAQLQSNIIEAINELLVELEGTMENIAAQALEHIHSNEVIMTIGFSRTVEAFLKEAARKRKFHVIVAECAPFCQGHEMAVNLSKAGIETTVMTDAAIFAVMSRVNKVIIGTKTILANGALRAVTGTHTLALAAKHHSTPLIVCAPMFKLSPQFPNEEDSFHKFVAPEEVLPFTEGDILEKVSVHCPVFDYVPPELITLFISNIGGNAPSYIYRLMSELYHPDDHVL
UniProt Q9BQ52: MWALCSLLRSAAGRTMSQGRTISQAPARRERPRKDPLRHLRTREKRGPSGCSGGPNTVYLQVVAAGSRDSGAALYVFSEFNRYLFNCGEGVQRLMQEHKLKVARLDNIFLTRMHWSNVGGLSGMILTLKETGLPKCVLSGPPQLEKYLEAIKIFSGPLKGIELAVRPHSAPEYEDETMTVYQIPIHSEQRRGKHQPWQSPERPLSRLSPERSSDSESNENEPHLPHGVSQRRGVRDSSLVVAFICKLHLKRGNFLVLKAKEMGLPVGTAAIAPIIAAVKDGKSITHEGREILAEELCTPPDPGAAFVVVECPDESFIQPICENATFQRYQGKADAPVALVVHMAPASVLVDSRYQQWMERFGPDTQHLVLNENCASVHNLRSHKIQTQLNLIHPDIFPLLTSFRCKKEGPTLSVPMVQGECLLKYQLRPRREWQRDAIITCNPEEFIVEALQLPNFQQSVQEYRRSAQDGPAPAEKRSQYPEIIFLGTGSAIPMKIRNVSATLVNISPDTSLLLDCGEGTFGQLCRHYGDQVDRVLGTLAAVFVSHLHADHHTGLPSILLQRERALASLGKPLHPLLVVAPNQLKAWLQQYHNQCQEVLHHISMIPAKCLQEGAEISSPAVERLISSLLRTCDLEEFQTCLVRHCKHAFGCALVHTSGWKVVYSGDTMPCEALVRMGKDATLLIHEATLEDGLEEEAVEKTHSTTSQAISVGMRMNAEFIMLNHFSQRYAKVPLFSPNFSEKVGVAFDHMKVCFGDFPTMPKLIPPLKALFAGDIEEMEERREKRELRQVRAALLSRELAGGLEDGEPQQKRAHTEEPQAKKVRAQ
UniProt O43768: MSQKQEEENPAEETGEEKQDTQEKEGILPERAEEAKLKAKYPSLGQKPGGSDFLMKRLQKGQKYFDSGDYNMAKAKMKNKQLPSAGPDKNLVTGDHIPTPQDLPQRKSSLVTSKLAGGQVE
UniProt Q9P2K8: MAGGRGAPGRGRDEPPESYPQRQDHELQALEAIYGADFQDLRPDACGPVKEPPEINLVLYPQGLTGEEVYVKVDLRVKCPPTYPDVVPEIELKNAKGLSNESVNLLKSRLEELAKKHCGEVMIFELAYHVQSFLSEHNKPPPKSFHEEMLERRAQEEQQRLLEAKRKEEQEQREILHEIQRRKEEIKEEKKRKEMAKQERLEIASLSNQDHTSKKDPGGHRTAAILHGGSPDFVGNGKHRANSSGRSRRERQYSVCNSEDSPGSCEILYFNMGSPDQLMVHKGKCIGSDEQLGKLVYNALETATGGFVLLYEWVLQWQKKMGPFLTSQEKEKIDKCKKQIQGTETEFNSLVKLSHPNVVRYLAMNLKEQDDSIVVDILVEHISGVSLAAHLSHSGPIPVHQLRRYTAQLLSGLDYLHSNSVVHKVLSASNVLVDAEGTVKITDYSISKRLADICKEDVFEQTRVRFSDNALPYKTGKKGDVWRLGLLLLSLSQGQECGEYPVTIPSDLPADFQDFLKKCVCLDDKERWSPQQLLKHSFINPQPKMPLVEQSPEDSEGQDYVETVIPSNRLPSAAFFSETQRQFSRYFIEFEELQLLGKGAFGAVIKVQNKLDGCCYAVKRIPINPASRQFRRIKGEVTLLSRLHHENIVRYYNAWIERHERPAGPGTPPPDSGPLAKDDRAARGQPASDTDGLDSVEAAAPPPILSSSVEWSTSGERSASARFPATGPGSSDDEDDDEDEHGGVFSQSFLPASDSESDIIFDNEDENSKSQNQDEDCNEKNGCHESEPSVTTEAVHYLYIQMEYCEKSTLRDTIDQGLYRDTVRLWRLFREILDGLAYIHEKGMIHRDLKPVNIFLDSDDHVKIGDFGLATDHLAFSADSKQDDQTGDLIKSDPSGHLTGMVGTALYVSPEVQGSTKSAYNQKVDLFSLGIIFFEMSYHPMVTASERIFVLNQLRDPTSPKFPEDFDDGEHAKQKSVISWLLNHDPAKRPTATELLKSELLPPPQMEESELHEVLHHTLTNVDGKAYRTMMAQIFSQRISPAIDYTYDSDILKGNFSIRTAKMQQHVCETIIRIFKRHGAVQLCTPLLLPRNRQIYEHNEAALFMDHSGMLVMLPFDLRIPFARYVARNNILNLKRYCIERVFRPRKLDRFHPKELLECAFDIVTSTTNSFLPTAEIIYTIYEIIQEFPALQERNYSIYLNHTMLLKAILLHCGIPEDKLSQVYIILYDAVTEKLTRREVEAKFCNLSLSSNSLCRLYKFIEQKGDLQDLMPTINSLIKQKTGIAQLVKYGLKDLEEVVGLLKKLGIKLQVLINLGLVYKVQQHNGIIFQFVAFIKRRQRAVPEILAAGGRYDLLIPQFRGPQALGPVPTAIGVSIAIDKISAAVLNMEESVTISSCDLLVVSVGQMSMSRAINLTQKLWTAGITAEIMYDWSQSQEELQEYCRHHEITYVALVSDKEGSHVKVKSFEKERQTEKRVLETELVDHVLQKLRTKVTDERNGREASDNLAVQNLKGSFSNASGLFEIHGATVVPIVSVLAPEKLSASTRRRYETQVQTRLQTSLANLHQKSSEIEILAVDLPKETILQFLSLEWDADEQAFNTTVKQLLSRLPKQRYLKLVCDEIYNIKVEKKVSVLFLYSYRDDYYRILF
UniProt P26641, whole entry, looked up: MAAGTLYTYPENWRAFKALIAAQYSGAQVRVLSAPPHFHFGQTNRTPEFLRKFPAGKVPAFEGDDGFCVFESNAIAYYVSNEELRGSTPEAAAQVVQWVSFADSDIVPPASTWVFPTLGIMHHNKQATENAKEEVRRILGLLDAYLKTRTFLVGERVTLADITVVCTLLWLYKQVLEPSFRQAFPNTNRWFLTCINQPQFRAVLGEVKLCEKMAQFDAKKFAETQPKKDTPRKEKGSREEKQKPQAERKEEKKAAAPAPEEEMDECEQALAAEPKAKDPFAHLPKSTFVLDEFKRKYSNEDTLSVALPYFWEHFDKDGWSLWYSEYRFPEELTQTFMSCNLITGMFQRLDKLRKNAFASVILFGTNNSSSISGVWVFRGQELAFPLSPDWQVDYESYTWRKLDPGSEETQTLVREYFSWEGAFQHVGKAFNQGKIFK
UniProt P41567, whole entry, looked up: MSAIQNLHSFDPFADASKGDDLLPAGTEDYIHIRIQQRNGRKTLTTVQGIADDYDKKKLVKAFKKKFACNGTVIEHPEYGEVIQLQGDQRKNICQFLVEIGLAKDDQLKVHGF

Tests used:
Test in all cases: log2 fold change, soluble protein after heating vs DMSO (PISA); higher = thermal stabilisation; K562 cells, 10 uM, 30 min; active = over 0.2 and 3.5 SD of the protein, either way, in both replicates (recomputed)
[1] = compound: NC(=O)Nc1cc(-c2cccc(F)c2)sc1C(=O)N[C@H]1CCCNC1
Outline: (§1)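 Soluble protein was defined as the supernatant after 21,000xg for 90 min. It came from K562 cells at 2×10^6 cells/mL given 10 μM compound for 30 min, heated in aliquots for 3 min across 48°C-58°C, pooled, and extracted in PBS with 0.5% NP-40 at 4°C, and was quantified by TMTpro 16plex LC-MS/MS with equalised channel sums. Thermal stability against control samples, from duplicates, is reported as log2 fold change.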

[2] = compound: NC(=O)c1cnc(N[C@@H]2CCCC[C@@H]2N)nc1Nc1cccc(-n2nccn2)c1
Outline: as §1

[3] = compound: NC1(c2ccc(-c3nc4ccn5c(=O)[nH]nc5c4cc3-c3ccccc3)cc2)CCC1
Outline: as §1

[4] = compound: NCC(=O)Nc1ccc(-n2nc(C(F)(F)F)cc2-c2ccc3c(ccc4ccccc43)c2)cc1
Outline: as §1

entinostat = compound: Nc1ccccc1NC(=O)c1ccc(CNC(=O)OCc2cccnc2)cc1 [entinostat]
Outline: as §1

vorinostat = compound: O=C(CCCCCCC(=O)Nc1ccccc1)NO [vorinostat]
Outline: as §1

citarinostat = compound: O=C(CCCCCCNC(=O)c1cnc(N(c2ccccc2)c2ccccc2Cl)nc1)NO [citarinostat]
Outline: as §1

silmitasertib = compound: O=C(O)c1ccc2c(c1)nc(Nc1cccc(Cl)c1)c1ccncc12 [silmitasertib]
Outline: as §1

[5] = compound: O=C1NC(=O)C(c2cnc3ccccn23)=C1c1cn2c3c(cc(F)cc13)CN(C(=O)N1CCCCC1)CC2
Outline: as §1

[6] = compound: c1cc(OCCN2CCCCC2)cc(-c2n[nH]c3ccc(-c4nnc[nH]4)cc23)c1
Outline: as §1

Measured: log2 fold change

ENDOG (UniProt Q14249)
inactive: [1] 0.018 | [2] 0.048 | [3] -0.038 | [4] 0.079 | entinostat -0.012 | vorinostat 0.052 | citarinostat 0.01 | silmitasertib 0.058 | [5] -0.065 | [6] -0.003

ENO2 (UniProt P09104)
inactive: [1] 0.037 | [2] -0.002 | [3] 0.027 | [4] 0.081 | entinostat -0.013 | vorinostat 0.027 | citarinostat 0.063 | silmitasertib -0.006 | [5] -0.013 | [6] -0.016

ELMOD2 (UniProt Q8IZ81)
inactive: [1] 0.004 | [2] -0.041 | [3] -0.071 | [4] -0.007 | entinostat 0.021 | vorinostat -0.031 | citarinostat 0.052 | silmitasertib 0.007 | [5] -0.051 | [6] -0.017

ELP1 (UniProt O95163)
inactive: [1] -0.029 | [2] -0.014 | [3] -0.051 | [4] -0.002 | entinostat -0.019 | vorinostat 0.013 | citarinostat 0.014 | silmitasertib -0.001 | [5] -0.018 | [6] -0.041

EIF4EBP1 (UniProt Q13541)
inactive: [1] -0.015 | [2] -0.029 | [3] 0.02 | [4] 0.061 | entinostat -0.018 | vorinostat -0.026 | citarinostat 0.009 | silmitasertib -0.026 | [5] -0.055 | [6] 0.076

EIF3L (UniProt Q9Y262)
inactive: [1] 0.018 | [2] -0.037 | [3] -0.059 | [4] 0.001 | entinostat -0.001 | vorinostat 0.039 | citarinostat 0.03 | silmitasertib -0.027 | [5] -0.102 | [6] -0.067

EIF3J (UniProt O75822)
inactive: [1] 0.035 | [2] -0.033 | [3] -0.072 | [4] 0.007 | entinostat 0.012 | vorinostat 0.143 | citarinostat 0.001 | silmitasertib 0.042 | [5] -0.017 | [6] 0.022

EEF1A1P5 (UniProt Q5VTE0)
inactive: [1] -0.005 | [2] -0.018 | [3] -0.141 | [4] -0.025 | entinostat 0.004 | vorinostat 0.005 | citarinostat 0.042 | silmitasertib 0 | [5] -0.024 | [6] -0.073

EP300 (UniProt Q09472)
inactive: [1] -0.067 | [2] -0.061 | [3] -0.081 | [4] 0 | entinostat 0.01 | vorinostat 0.056 | citarinostat 0.077 | silmitasertib -0.081 | [5] -0.172 | [6] -0.053

EIF2A (UniProt Q9BY44)
inactive: [1] 0.009 | [2] 0.017 | [3] -0.008 | [4] 0.009 | entinostat -0.013 | vorinostat 0.029 | citarinostat 0.01 | silmitasertib 0.025 | [5] 0.043 | [6] -0.084

EIF2B2 (UniProt P49770)
inactive: [1] -0.017 | [2] 0.004 | [3] -0.002 | [4] 0.024 | entinostat -0.034 | vorinostat 0.027 | citarinostat 0.032 | silmitasertib 0.016 | [5] 0.02 | [6] -0.064

EFHD2 (UniProt Q96C19)
inactive: [1] -0.049 | [2] -0.093 | [3] -0.135 | [4] -0.138 | entinostat 0.033 | vorinostat 0.021 | citarinostat 0.039 | silmitasertib 0.05 | [5] -0.032 | [6] 0.02

EFNB1 (UniProt P98172)
inactive: [1] 0.047 | [2] 0.093 | [3] -0.05 | [4] 0.054 | entinostat 0.01 | vorinostat -0.049 | citarinostat 0.073 | silmitasertib -0.051 | [5] 0.106 | [6] 0.171

EMC2 (UniProt Q15006)
inactive: [1] 0.014 | [2] -0.027 | [3] -0.065 | [4] -0.015 | entinostat 0.02 | vorinostat 0.018 | citarinostat 0.021 | silmitasertib -0.027 | [5] -0.014 | [6] -0.011

2 records drawn at random from those above:
EFNB1 (UniProt P98172)
inactive: [1] 0.047 | [2] 0.093 | [3] -0.05 | [4] 0.054 | entinostat 0.01 | vorinostat -0.049 | citarinostat 0.073 | silmitasertib -0.051 | [5] 0.106 | [6] 0.171

EIF3L (UniProt Q9Y262)
inactive: [1] 0.018 | [2] -0.037 | [3] -0.059 | [4] 0.001 | entinostat -0.001 | vorinostat 0.039 | citarinostat 0.03 | silmitasertib -0.027 | [5] -0.102 | [6] -0.067

Further records

EIF6 (UniProt P56537)
inactive: [1] 0.032 | [2] -0.04 | [3] 0.046 | [4] 0.035 | entinostat -0.04 | vorinostat -0.047 | citarinostat 0.017 | silmitasertib 0.053 | [5] -0.019 | [6] 0.025

EIF3E (UniProt P60228)
inactive: [1] -0.092 | [2] -0.041 | [3] -0.064 | [4] -0.039 | entinostat 0.091 | vorinostat 0.038 | citarinostat 0.07 | silmitasertib 0.075 | [5] 0.2 | [6] -0.094

EEF2 (UniProt P13639)
inactive: [1] 0.045 | [2] 0.005 | [3] 0.015 | [4] 0.037 | entinostat -0.005 | vorinostat -0.001 | citarinostat 0.017 | silmitasertib -0.051 | [5] -0.005 | [6] -0.034

EOGT (UniProt Q5NDL2)
inactive: [1] -0.008 | [2] -0.063 | [3] -0.045 | [4] -0.011 | entinostat 0.031 | vorinostat -0.092 | citarinostat -0.016 | silmitasertib 0.038 | [5] 0.009 | [6] -0.063

EIF1AX (UniProt P47813)
inactive: [1] 0.012 | [2] 0.01 | [3] 0.019 | [4] 0.012 | entinostat 0.033 | vorinostat 0.023 | citarinostat -0.002 | silmitasertib -0.028 | [5] 0.017 | [6] -0.009

ELAC2 (UniProt Q9BQ52)
inactive: [1] -0.035 | [2] 0.008 | [3] -0.029 | [4] 0.02 | entinostat -0.038 | vorinostat -0.089 | citarinostat -0.001 | silmitasertib 0.004 | [5] -0.021 | [6] -0.02

EIF3A (UniProt Q14152)
inactive: [1] -0.059 | [2] -0.002 | [3] -0.119 | [4] -0.046 | entinostat 0.09 | vorinostat 0.086 | citarinostat 0.054 | silmitasertib 0.051 | [5] 0.111 | [6] -0.094

ELOVL1 (UniProt Q9BW60)
inactive: [1] 0.017 | [2] -0.191 | [3] -0.087 | [4] -0.055 | entinostat 0.05 | vorinostat 0.321 | citarinostat -0.006 | silmitasertib -0.046 | [5] 0.002 | [6] 0.035

ENSA isoform 3 (UniProt O43768)
inactive: [1] -0.021 | [2] -0.045 | [3] 0.032 | [4] 0.015 | entinostat -0.021 | vorinostat -0.031 | citarinostat 0.021 | silmitasertib -0.015 | [5] -0.031 | [6] 0.048

EMC7 (UniProt Q9NPA0)
inactive: [1] -0.019 | [2] -0.045 | [3] -0.074 | [4] -0.04 | entinostat -0.007 | vorinostat -0.038 | citarinostat -0.02 | silmitasertib 0.029 | [5] -0.031 | [6] -0.1

EIF2AK4 (UniProt Q9P2K8)
inactive: [1] -0.031 | [2] 0.015 | [3] -0.09 | [4] -0.095 | entinostat 0.049 | vorinostat 0.193 | citarinostat 0.199 | silmitasertib 0.16 | [5] 0.001 | [6] -0.058

EEF1G isoform 2 (UniProt P26641)
inactive: [1] -0.005 | [2] -0.039 | [3] -0.1 | [4] 0.011 | entinostat 0.036 | vorinostat 0.059 | citarinostat 0.035 | silmitasertib 0.014 | [5] 0.003 | [6] -0.046

EIF1AD (UniProt Q8N9N8)
inactive: [1] -0.036 | [2] -0.09 | [3] 0.027 | [4] -0.03 | entinostat -0.007 | vorinostat -0.055 | citarinostat 0.006 | silmitasertib 0.017 | [5] -0.027 | [6] 0.019

EIF1 (UniProt P41567)
inactive: [1] -0.012 | [2] 0.049 | [3] 0.103 | [4] -0.006 | entinostat -0.002 | vorinostat -0.086 | citarinostat -0.044 | silmitasertib 0.005 | [5] -0.077 | [6] -0.107

EIF3B isoform 2 (UniProt P55884)
inactive: [1] -0.073 | [2] -0.109 | [3] -0.11 | [4] -0.055 | entinostat 0.012 | vorinostat 0.102 | citarinostat 0.086 | silmitasertib 0.072 | [5] 0.124 | [6] -0.064
